PubChem BioAssay AID652259, Drosophila RNAi Screening Center | 2013

- Assay: 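Genome-wide hunt for genes that control Wingless pathway activity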 (primary screen)
- Cells: Drosophila clone 8 imaginal disc epithelial cells
- Knock-down reagent: long dsRNA against Drosophila genes
- Treatment: pathway stimulated by co-transfected Wingless expression plasmid
- Detection: 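Dual luciferase reads per well after Wingless plasmid stimulation: reporter firefly light and Renilla control light; activity is firefly divided by Renilla, a ratio not deposited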
- Reading the numbers: firefly reporter light: higher = more Wg reporter light, before normalisation; Renilla control light: higher = more transfected or surviving cells
- Rule for the call: 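a knock-down is a candidate when at least two out of four statistical tests show it departing from its plate mean; one test alone signals a weak candidate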
- Meaning of the calls: active = candidate regulator (raises or lowers reporter); inactive = not a candidate
The deposit covers about 22,000 reagents; this is an unselected part of those with a known target gene and a result. Of all reagents, 233 (1.1%) are marked active. 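Light values are raw, unnormalised plate reads; the ratio scores behind the reporter calls were not deposited.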 A plus sign joins genes that one reagent is predicted to hit. Not stated in the record: the amount of reagent, the time to read-out, the dose of the treatment.

The first 4 records as a preview:
CG3165 [DRSC00573] — firefly reporter light, replicate 1 = 6829; Renilla control light, replicate 1 = 3424; activity call = inactive
CG14153 [DRSC10155] — firefly reporter light, replicate 1 = 9981; Renilla control light, replicate 1 = 3941; activity call = inactive
CG14153 [DRSC22595] — firefly reporter light, replicate 1 = 4.74e5; firefly reporter light, replicate 2 = 4.66e5; Renilla control light, replicate 1 = 1.59e5; Renilla control light, replicate 2 = 1.69e5; activity call = inactive
PlexB (Plexin B) [DRSC17177] — firefly reporter light, replicate 1 = 17339; Renilla control light, replicate 1 = 16115; activity call = inactive

Main list, repeating the preview:
CG3165 [DRSC00573] — firefly reporter light, replicate 1 = 6829; Renilla control light, replicate 1 = 3424; activity call = inactive
CG14153 [DRSC10155] — firefly reporter light, replicate 1 = 9981; Renilla control light, replicate 1 = 3941; activity call = inactive
CG14153 [DRSC22595] — firefly reporter light, replicate 1 = 4.74e5; firefly reporter light, replicate 2 = 4.66e5; Renilla control light, replicate 1 = 1.59e5; Renilla control light, replicate 2 = 1.69e5; activity call = inactive
PlexB (Plexin B) [DRSC17177] — firefly reporter light, replicate 1 = 17339; Renilla control light, replicate 1 = 16115; activity call = inactive
CG31140 [DRSC13649] — firefly reporter light, replicate 1 = 6298; Renilla control light, replicate 1 = 1692; activity call = inactive
CG31140 [DRSC14603] — firefly reporter light, replicate 1 = 4513; firefly reporter light, replicate 2 = 8208; Renilla control light, replicate 1 = 1641; Renilla control light, replicate 2 = 2507; activity call = inactive
CG31140 [DRSC15904] — firefly reporter light, replicate 1 = 22913; Renilla control light, replicate 1 = 18289; activity call = inactive
Myo28B1 (Myosin 28B1) [DRSC03375] — firefly reporter light, replicate 1 = 2640; firefly reporter light, replicate 2 = 11536; Renilla control light, replicate 1 = 263; Renilla control light, replicate 2 = 4454; activity call = inactive
CG16879 (retired record) [DRSC01918] — firefly reporter light, replicate 1 = 4490; firefly reporter light, replicate 2 = 12435; Renilla control light, replicate 1 = 2243; Renilla control light, replicate 2 = 7024; activity call = inactive
CG16879 (retired record) [DRSC22849] — firefly reporter light, replicate 1 = 6.11e5; firefly reporter light, replicate 2 = 6.56e5; Renilla control light, replicate 1 = 2.10e5; Renilla control light, replicate 2 = 2.18e5; activity call = inactive
CG32444 [DRSC11677] — firefly reporter light, replicate 1 = 6497; Renilla control light, replicate 1 = 2935; activity call = inactive
MESK2 + CG10494 [DRSC04259] — firefly reporter light, replicate 1 = 2051; firefly reporter light, replicate 2 = 7475; Renilla control light, replicate 1 = 648; Renilla control light, replicate 2 = 2055; activity call = inactive
Sans (Scaffold protein containing ankyrin repeats and SAM domain) [DRSC06357] — firefly reporter light, replicate 1 = 13512; Renilla control light, replicate 1 = 3884; activity call = inactive
CG12862 [DRSC06202] — firefly reporter light, replicate 1 = 6375; Renilla control light, replicate 1 = 2152; activity call = inactive
CG32111 (retired record) [DRSC09203] — firefly reporter light, replicate 1 = 3088; Renilla control light, replicate 1 = 1152; activity call = inactive
CG7548 [DRSC10874] — firefly reporter light, replicate 1 = 1609; firefly reporter light, replicate 2 = 8039; Renilla control light, replicate 1 = 1257; Renilla control light, replicate 2 = 3549; activity call = inactive
Polr1H (RNA polymerase I subunit H) [DRSC14594] — firefly reporter light, replicate 1 = 4777; firefly reporter light, replicate 2 = 7301; Renilla control light, replicate 1 = 976; Renilla control light, replicate 2 = 2272; activity call = inactive
lncRNA:CR34047 (long non-coding RNA:CR34047) [DRSC07857] — firefly reporter light, replicate 1 = 5602; Renilla control light, replicate 1 = 2504; activity call = inactive
lncRNA:CR34047 (long non-coding RNA:CR34047) [DRSC21689] — firefly reporter light, replicate 1 = 7.82e5; firefly reporter light, replicate 2 = 7.29e5; Renilla control light, replicate 1 = 3.71e5; Renilla control light, replicate 2 = 3.24e5; activity call = inactive
CG40298 [DRSC22274] — firefly reporter light, replicate 1 = 5.59e5; firefly reporter light, replicate 2 = 5.55e5; Renilla control light, replicate 1 = 2.24e5; Renilla control light, replicate 2 = 2.06e5; activity call = inactive
betaTry (betaTrypsin) [DRSC07582] — firefly reporter light, replicate 1 = 12213; Renilla control light, replicate 1 = 5450; activity call = inactive
betaTry (betaTrypsin) [DRSC22377] — firefly reporter light, replicate 1 = 7.88e5; firefly reporter light, replicate 2 = 8.34e5; Renilla control light, replicate 1 = 3.63e5; Renilla control light, replicate 2 = 3.64e5; activity call = inactive
pr (purple) [DRSC03596] — firefly reporter light, replicate 1 = 11251; Renilla control light, replicate 1 = 3762; activity call = inactive
GABA-B-R3 (metabotropic GABA-B receptor subtype 3) [DRSC00561] — firefly reporter light, replicate 1 = 2760; firefly reporter light, replicate 2 = 6426; Renilla control light, replicate 1 = 868; Renilla control light, replicate 2 = 2291; activity call = inactive
Acp1 (Adult cuticle protein 1) [DRSC01854] — firefly reporter light, replicate 1 = 3939; firefly reporter light, replicate 2 = 4784; Renilla control light, replicate 1 = 1234; Renilla control light, replicate 2 = 2556; activity call = inactive
CG7341 [DRSC10818] — firefly reporter light, replicate 1 = 3452; Renilla control light, replicate 1 = 1137; activity call = inactive
CG9121 [DRSC03142] — firefly reporter light, replicate 1 = 1466; firefly reporter light, replicate 2 = 6563; Renilla control light, replicate 1 = 556; Renilla control light, replicate 2 = 1736; activity call = inactive
CG7309 [DRSC03045] — firefly reporter light, replicate 1 = 3299; firefly reporter light, replicate 2 = 8517; Renilla control light, replicate 1 = 1191; Renilla control light, replicate 2 = 4621; activity call = inactive
croc (crocodile) [DRSC11884] — firefly reporter light, replicate 1 = 17105; Renilla control light, replicate 1 = 6451; activity call = inactive
CG5043 [DRSC02805] — firefly reporter light, replicate 1 = 3312; firefly reporter light, replicate 2 = 4245; Renilla control light, replicate 1 = 1133; Renilla control light, replicate 2 = 2060; activity call = inactive
RpL13A (Ribosomal protein L13A) [DRSC12265] — firefly reporter light, replicate 1 = 5723; Renilla control light, replicate 1 = 2677; activity call = inactive
CG14744 [DRSC06480] — firefly reporter light, replicate 1 = 3536; firefly reporter light, replicate 2 = 6989; Renilla control light, replicate 1 = 1091; Renilla control light, replicate 2 = 2644; activity call = inactive
